Assay results as given in US5620955A, “Bombesin receptor antagonists and uses thereof” (Peptide Technologies Corporation, priority 1993, dated 1997).
Like-named read-outs stand apart in the source and are kept apart here. For some of these results: Part of at least one peptide drawing is inferred or uncertain, most often the ends. Some compounds share one wording; it may come from a single statement. For some of these results: At least one compound was matched to its structure with a doubt left. Positions of bridges follow the written chain, without caps; N, C: chain ends. Non-standard residues stand in square brackets, D forms with d. Residues, ends and D or L forms follow the SMILES beside them. *: point of attachment. Chlorambucil = O=C(CCCc1ccc(N(CCCl)CCCl)cc1)*; X1 = O=C(CCCc1ccc(N(CCO)CCCl)cc1)*; 1Naphthoyl = O=C(c1cccc2ccccc12)*; Bz = O=C(c1ccccc1)*

Chains of the proteins cited; added tags and fusions are not shown. Lines headed by an entry give the natural chain unless they say otherwise; changes in a name come on top.
UniProt P52500: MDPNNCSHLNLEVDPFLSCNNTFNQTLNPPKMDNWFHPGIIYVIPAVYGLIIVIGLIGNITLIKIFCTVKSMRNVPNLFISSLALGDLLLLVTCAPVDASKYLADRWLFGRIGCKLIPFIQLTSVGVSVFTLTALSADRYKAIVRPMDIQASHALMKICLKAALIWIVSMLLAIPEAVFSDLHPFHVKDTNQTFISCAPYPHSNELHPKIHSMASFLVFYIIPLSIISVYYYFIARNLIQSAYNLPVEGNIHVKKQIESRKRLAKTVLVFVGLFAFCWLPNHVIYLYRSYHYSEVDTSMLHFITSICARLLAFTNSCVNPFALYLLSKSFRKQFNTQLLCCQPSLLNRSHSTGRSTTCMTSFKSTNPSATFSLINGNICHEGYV
UniProt P30550: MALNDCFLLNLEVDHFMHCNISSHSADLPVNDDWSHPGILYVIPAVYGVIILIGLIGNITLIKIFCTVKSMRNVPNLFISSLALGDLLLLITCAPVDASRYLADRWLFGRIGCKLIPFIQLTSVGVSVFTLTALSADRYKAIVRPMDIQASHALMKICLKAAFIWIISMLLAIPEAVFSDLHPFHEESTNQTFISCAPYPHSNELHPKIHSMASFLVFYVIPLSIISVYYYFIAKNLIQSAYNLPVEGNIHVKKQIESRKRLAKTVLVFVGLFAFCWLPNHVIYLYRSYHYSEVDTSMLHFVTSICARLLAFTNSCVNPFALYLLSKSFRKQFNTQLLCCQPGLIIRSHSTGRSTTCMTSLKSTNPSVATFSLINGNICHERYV

Experiments:
[1] = target: T1, BBN receptor (Rattus norvegicus, UniProt P52500); assay: Inhibition of bombesin-stimulated amylase release from rat pancreatic acini; type: cell-based; conditions: for IC50: half-maximal inhibition of bombesin-stimulated amylase release from acini, mean ± s.e.m.
Experimental: (§1) Acinar cells from rat pancreas bind BBN and secrete amylase when treated with BBN. The ability of potential antagonists to bind to rat pancreatic acinar cells was examined by determining the ability of the compounds to inhibit the binding of radiolabelled BBN. […] Finally, antagonist activity of the compounds was determined by measuring the ability of compounds to prevent the release of amylase from cells in response to BBN. […] This cell line was also used to evaluate biological activities of potential antagonists derived from the structures of BBN and GRP. The binding of synthetic compounds to cellular membranes prepared from NCI-H345 was determined. The ability of potential antagonists to block the BBN-stimulated increase in cytosolic levels of Ca^++ was determined. Compounds showing inhibition were further tested to determine the effect on growth of two human SCLC cell lines in culture.
The incubation solution contained 1% albumin and the wash solution contained 0.2% albumin. The solution was equilibrated with 100% O2. Dispersed acini were suspended in 20 ml of solution. Samples of 1 ml were incubated in the presence of various concentrations of compounds in the presence of 1 nM bombesin. After the first incubation the samples were washed 4 times with wash solution at 4° C. The acini were then resuspended in fresh incubation buffer and incubated at 37° C. Amylase release was measured by the Phadebas reagent. Amylase secretion during a given incubation was expressed as the percentage of amylase present in the acini at the beginning of that incubation that was released into the extracellular medium.

[2] = target: T2, BBN receptor (Homo sapiens, UniProt P30550); assay: Inhibition of [125I]Tyr4-BBN binding to SCLC NCI-H345 membranes; conditions: for IC50: 50% inhibition of specific [125I]Tyr4-BBN binding, NCI-H345; for inhibition of BBN binding to SCLC membranes (in words): radiolabelled Tyr4-BBN
T2 construct: endogenous in cells; host or cells: NCI-H345 (human SCLC)
Experimental: as §1
Potential antagonists were also evaluated for their ability to inhibit the binding of radiolabelled Tyr^4 -BBN to SCLC membranes and for their effects on BBN signal transduction in SCLC cells.

[3] = target: T1, BBN receptor; assay: Inhibition of 125I bombesin binding to rat pancreatic acinar cells; conditions: for Kd: inhibition of 125I bombesin binding, IC50 divided by radioligand concentration; for binding to rat pancreatic acinar cells (in words): inhibition of radiolabelled BBN binding
Experimental: Inhibition of equilibrium binding of ^125 I labeled bombesin to acinar membranes by the compounds was determined. The Kd was determined by dividing IC50 (the concentration of synthetic compound required to inhibit 50% of the specific binding of labelled BBN) by the concentration of radiolabeled peptide.

[4] = target: T1, BBN receptor; assay: Stimulation of amylase release from rat pancreatic acinar cells by the compound alone (agonist test); type: cell-based
[5] = target: T2, BBN receptor; assay: Cytosolic Ca++ assay in SCLC cell line NCI-H345; type: cell-based; parameters: key: antagonized (A); had no effect (--) on the ability of 10 nM BBN to; conditions: compound 10 μM; 10 nM BBN elevation of cytosolic Ca++
Experimental: SCLC cell line NCI-H345 was cultured for two days in medium containing 10^-8 M hydrocortisone, 5 μg/ml bovine insulin, 10 μg/ml human transferrin, 10^-8 M β-estradiol and 3×10^-8 M Na2 SeO3. The cells were harvested and washed, resuspended in medium containing 20 mM HEPES, pH 7.4, and loaded with 5 μM Fura 2 AM (Calbiochem) for 30 minutes. The cells were centrifuged at 150×g for 10 minutes to remove extracellular dye and resuspended and placed in a spectrofluorometer cell equipped with stirring and 37° C. heating. The emission was read at 510 nm with 340 excitation (Moody et al., Biochem. Biophys. Res. Commun. 147:189 (1987)). The response of compounds at 5 μM was measured initially as a screen and compared to that of 10 nM BBN. The response of varying concentrations of peptide (nM to μM) in the presence of 10 nM BBN was determined.

[6] = system: NCI-H345; assay: Clonagenic assay, colony formation of NCI-H345; type: cell-based, human; parameters: key to Growth: significantly reduced (R); had no effect (--) on th
Experimental: The effect of 1 to 1000 nM concentration of peptides on growth of NCI-H345 colonies stimulated by 10 nM BBN was measured in the agarose cloning system (Mahoud et al., Cancer Res. 51:1798 (1991); Staley et al., Peptides 12:145-149 (1991)). […] On the day of the assay, cells were harvested, centrifuged and suspended in the buffer. The agarose cloning system consisted of 3 ml of 0.5% agarose in SIT medium with 5% fetal bovine serum in six well plates. To a top layer, consisting of 3 ml HITES medium in 0.3% agarose, the peptides at two times concentration and 6×10^4 single viable cells, were added. For each peptide concentration, triplicate wells were plated. After two weeks, 1 ml of 0.1% p-iodo-nitrotetrazolium violet was added, and after 16 hours at 37° C., the plates were screened for colony formation; the number of colonies larger than […] in diameter were counted using a Bausch and Lomb Omnicon image analysis system.

[7] = system: NCI-H345; assay: Clonagenic assay, colony formation of NCI-H345; type: cell-based, human; conditions: antagonist 1 μM alone, mean ± S.E. of 3
[8] = system: NCI-H720; assay: Clonagenic assay, colony formation of NCI-H720; type: cell-based, human
Experimental: On the day of the assay, cells were harvested, centrifuged and suspended in the buffer. The agarose cloning system consisted of 3 ml of 0.5% agarose in SIT medium with 5% fetal bovine serum in six well plates. To a top layer, consisting of 3 ml HITES medium in 0.3% agarose, the peptides at two times concentration and 6×10^4 single viable cells, were added. For each peptide concentration, triplicate wells were plated. After two weeks, 1 ml of 0.1% p-iodo-nitrotetrazolium violet was added, and after 16 hours at 37° C., the plates were screened for colony formation; the number of colonies larger than […] in diameter were counted using a Bausch and Lomb Omnicon image analysis system.

[9] = target: T1, BBN receptor; type: cell-based; conditions: for Amylase Release, Post-Wash 1 Min / Amylase Release, Post-Wash 30 Min / Amylase Release, Post-Wash 60 Min / Amylase Release, Secretion (Wash): PTC 821 1 μM
[10] = target: T3, CCK Receptor (Rattus norvegicus, UniProt P30551); assay: Specificity test, CCK-stimulated amylase secretion of rat pancreatic acinar cells after wash; conditions: PTC 821 1 μM; CCK 0.1 nM
T3 sequence (P30551 1-444): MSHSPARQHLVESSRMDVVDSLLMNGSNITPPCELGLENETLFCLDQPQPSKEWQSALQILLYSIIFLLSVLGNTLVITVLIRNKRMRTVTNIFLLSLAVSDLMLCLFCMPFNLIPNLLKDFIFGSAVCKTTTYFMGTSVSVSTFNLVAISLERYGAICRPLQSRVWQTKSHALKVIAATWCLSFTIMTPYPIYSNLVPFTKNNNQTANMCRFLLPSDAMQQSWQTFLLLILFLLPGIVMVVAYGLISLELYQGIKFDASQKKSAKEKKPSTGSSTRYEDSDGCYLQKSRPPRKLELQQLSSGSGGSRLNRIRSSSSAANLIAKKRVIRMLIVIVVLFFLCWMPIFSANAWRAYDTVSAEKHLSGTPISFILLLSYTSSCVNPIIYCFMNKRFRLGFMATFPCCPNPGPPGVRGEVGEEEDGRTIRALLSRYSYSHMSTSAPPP

CC(C)C[C@@H]1NC(=O)[C@H](Cc2c[nH]cn2)NC(=O)[C@@H](C)NC(=O)[C@H](C(C)C)NC(=O)[C@H](C)NC(=O)[C@H](Cc2c[nH]c3ccccc23)NC(=O)[C@H](CCC(N)=O)NC(=O)[C@H](CC(N)=O)NC(=O)[C@H](NC(=O)c2ccccc2)CCCCNC1=O [PTC 807] (Bz-[dK]NQWAV[dA]HL; lactam 1-C)
IC50 [1]: > 3 µM
IC50 [2]: > 10 µM
Kd [3]: > 3 µM
EC50 [4]: > 3 µM

CC(C)C[C@@H]1NC(=O)[C@H](Cc2c[nH]cn2)NC(=O)[C@@H](C)NC(=O)[C@H](C(C)C)NC(=O)[C@H](C)NC(=O)[C@H](Cc2c[nH]c3ccccc23)NC(=O)[C@H](CCC(N)=O)NC(=O)[C@H](CC(N)=O)NC(=O)[C@H](NC(=O)c2cccc3ccccc23)CCCCNC1=O [PTC 808] (1Naphthoyl-[dK]NQWAV[dA]HL; lactam 1-C)
IC50 [1]: > 3 µM
IC50 ([2]; read-out: IC50): > 10 µM
Kd [3]: > 3 µM
EC50 [4]: > 3 µM

CCOC(=O)[C@H](CC(C)C)NC(=O)[C@H](Cc1c[nH]cn1)NC(=O)[C@@H](C)NC(=O)[C@@H](NC(=O)[C@H](C)NC(=O)[C@H](Cc1c[nH]c2ccccc12)NC(=O)[C@H](CCC(N)=O)NC(=O)[C@H](CC(N)=O)NC(=O)CCCc1ccc(N(CCO)CCCl)cc1)C(C)C [PTC 815B] (X1-NQWAV[dA]HL-OEt)
Ca++ effect [5]: A
inhibition of BBN binding to SCLC membranes (in words) [2]: potent inhibitors of BBN binding

CCOC(=O)[C@H](CC(C)C)NC(=O)[C@H](Cc1c[nH]cn1)NC(=O)[C@@H](C)NC(=O)[C@@H](NC(=O)[C@H](C)NC(=O)[C@H](Cc1c[nH]c2ccccc12)NC(=O)[C@H](CCC(N)=O)NC(=O)[C@H](CC(N)=O)NC(=O)CCCc1ccc(N(CCCl)CCCl)cc1)C(C)C [PTC 815] (Chlorambucil-NQWAV[dA]HL-OEt)
Ca++ effect [5]: A
antagonist activity on rat pancreatic acinar cells (in words) [1]: potent antagonists
colony formation (in words) ([6]; NCI-H345, 1 μM): reduce the amount of colony formation
Growth ([6]; compound 1 μM, clonal growth of a human tumor cell line): R
inhibition of BBN binding to SCLC membranes (in words) [2]: potent inhibitors of BBN binding
colony formation [7]: 38 ± 4 Colony per mm^2
binding to rat pancreatic acinar cells (in words) [3]: did bind to the cells
colony formation ([8]; NCI-H720, antagonist 1 μM alone, mean ± S.E. of 3): 33 ± 1 Colony per mm^2
colony formation (in words) ([8]; second SCLC line (NCI-H270 in the text, NCI-H720 in Table 4), 1 μM): reduce the amount of colony formation

CCOC(=O)[C@H](CC(C)C)NC(=O)[C@H](Cc1c[nH]cn1)NC(=O)[C@@H](C)NC(=O)[C@@H](NC(=O)[C@H](C)NC(=O)[C@H](Cc1c[nH]c2ccccc12)NC(=O)[C@H](Cc1c[nH]cn1)NC(=O)CCCc1ccc(N(CCCl)CCCl)cc1)C(C)C [PTC 821] (Chlorambucil-HWAV[dA]HL-OEt)
Amylase Release, Post-Wash 1 Min ([9]; BBN 1 nM): 3.4 ± 0.7 % Total
Amylase Release, Post-Wash 30 Min ([9]; BBN 1 nM): 2.8 ± 0.5 % Total
Amylase Release, Post-Wash 60 Min ([9]; BBN 1 nM): 4.2 ± 1.90 % Total
Amylase Release, Secretion (Wash) ([9]; BBN 1 nM): 2.3 ± 0.2 % Total
Amylase Release, Post-Wash 1 Min ([9]; control (no secretagogue)): 3.0 ± 0.7 % Total
Amylase Release, Post-Wash 30 Min ([9]; control (no secretagogue)): 1.7 ± 0.3 % Total
Amylase Release, Post-Wash 60 Min ([9]; control (no secretagogue)): 2.9 ± 0.4 % Total
Amylase Release, Secretion (Wash) ([9]; control (no secretagogue)): 3.6 ± 0.4 % Total
reversal of inhibitory effect by BBN (in words) ([9]; addition of 1 nM BBN after wash): only partially reversed
Ca++ effect [5]: A
Amylase Release, Post-Wash 1 Min [10]: 13.9 ± 1.6 % Total
Amylase Release, Post-Wash 30 Min [10]: 8.7 ± 1.0 % Total
Amylase Release, Post-Wash 60 Min [10]: 10.5 ± 2.2 % Total
Amylase Release, Secretion (Wash) [10]: 14.8 ± 1.9 % Total
effect on CCK-stimulated amylase secretion (in words) [10]: did not affect the cells' response to CCK-stimulated amylase secretion
antagonist activity on rat pancreatic acinar cells (in words) [1]: potent antagonists
inhibition of BBN binding to SCLC membranes (in words) [2]: potent inhibitors of BBN binding
binding to rat pancreatic acinar cells (in words) [3]: did bind to the cells
